Laboratory results published in PubChem BioAssay AID504834 (National Center for Advancing Translational Sciences (NCATS), 2011).
Screen size: about 320,000 compounds; about 22,000 (6.9%) were called active. Inconclusive results, whose numbers are uncertain, are shown with a selection of clear calls. The call rests on the fitted dose curve; in most records, active means well fitted inhibition curve with a large enough effect; inconclusive means small, poorly fitted or top-dose-only effect, or another doubt; inactive means no such curve, though single readings can be large or run the other way. Potencies beside an inconclusive call are fits to weak or partial responses and may not hold up.

Test: Primary qHTS for delayed death inhibitors of the malarial parasite plastid, 96 hour incubation
Settings: P. falciparum luciferase reporter growth; series mostly up to 28.7 µM; activity change, negative = inhibition: at the top concentration
Method in brief: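 Readout is luminescence from an integrated firefly luciferase in P. falciparum. Red cells, 2% hematocrit and 0.05% parasitemia final, were cultured with compound through two parasite generations (96 hours) at 37 C, 5% CO2.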
On the % scale 0 is the no-effect control and ±100 the full control effect; potency means the concentration at half of the fitted maximal effect.

Structure (SMILES)	activity change, negative = inhibition	Potency
O=C(c1ccc(Cl)cc1)N1CCC(c2nc(-c3cccs3)no2)CC1	inactive: 22%	
CC(=O)Nc1ccc(S(=O)(=O)NCC(=O)NC(C)c2ccc(S(N)(=O)=O)cc2)cc1 (stereo not given)		inconclusive: 2.33 µM [inhibitor, full curve, poor fit]
O=C(CCS(=O)(=O)c1ccccc1)N1CCN(c2ccccc2)CC1		inconclusive: 16.5 µM [inhibitor, single point]
COc1ccc(C)cc1Nc1c2c(nc3ccccc13)CCC2	inactive: 49.4%	
Cc1ccc(NC(=S)NCc2ccc(Cl)cc2)c(C)c1		inconclusive: 18.5 µM [inhibitor, single point]
CCCn1nc(C(=O)Oc2ccc3c(C)cc(=O)oc3c2)c2ccccc2c1=O	inactive: 4.78%	
CN(C)c1ccc(-c2cc(O)c3ncccc3c2)cc1		active: 5.22 µM
COCc1c(Br)c(C)nc(OCC(=O)N/N=C/c2ccc(C)o2)c1C#N		inconclusive: 18.5 µM [inhibitor, single point]
COc1ccc(NC(=O)Cc2nnc(SCC(=O)NC3CCCCC3C)n2C)cc1 (stereo not given)	inactive: -19.8%	
CCc1nc2oc3ccccc3c(=O)c2c(=O)n1CCOC		inconclusive: 1.17 µM [inhibitor, single point]
OCc1cn(-c2ccccc2)nc1-c1ccc2c(c1)OCCO2	inactive: 84.1%	
COc1cccc(NC(=O)c2ccccc2-c2ccccc2)c1	inactive: 39.6%	
Cc1ccc(OCCOc2ccc(S(=O)(=O)N3CCCC3)cc2C(N)=O)cc1	inactive: 7.11%	
CCN[C@@H]1C[C@H](C)S(=O)(=O)c2sc(S(N)(=O)=O)cc21		inconclusive: 2.13 µM [inhibitor, full curve, poor fit]
Cc1cccc(Cn2c(N3CCN(C)CC3)nc3c2c(=O)[nH]c(=O)n3C)c1		inconclusive: 9.28 µM [inhibitor, single point]
CN1CCN(CC(=O)N/N=C/c2ccc(F)c(F)c2)CC1		inconclusive: 18.5 µM [inhibitor, single point]
CCc1nnc(NS(=O)(=O)c2ccc(NC(=O)c3ccc(C#N)cc3)cc2)s1		active: 10.4 µM
NC(=O)CC(NC(=O)Cc1cccc2ccccc12)c1ccc(NCc2cc(F)ccc2F)c([N+](=O)[O-])c1 (stereo not given)		inconclusive: 14.7 µM [inhibitor, single point]
COc1ccc(CN2CCN(Cc3c[nH]c4ccccc34)CC2CCO)cc1C (stereo not given)		inconclusive: 18.5 µM [inhibitor, single point]
CC1Sc2ccc(S(=O)(=O)N3CCC(C(=O)Nc4cccc(Cl)c4)CC3)cc2NC1=O (stereo not given)	inactive: -5.87%	
Cc1ccc(N(Cc2cc3ccccc3[nH]c2=O)C(=O)c2cccs2)cc1C		inconclusive: 18.5 µM [inhibitor, single point]
Cc1ccc(OCC(=O)Nc2ccc3c(c2)C(=O)NC3=O)c(C)c1	inactive: -13.1%	
CSc1ccccc1NC(=O)CN(C)CC(=O)Nc1ccccc1N1CCOCC1		inconclusive: 0.165 µM [inhibitor, partial curve, poor fit]
O=C(CCN1C(=O)S/C(=C\c2ccc(Cl)cc2)C1=O)Nc1ccc(C(=O)O)cc1	inactive: 12.9%	

Structure (SMILES)	activity change, negative = inhibition	Potency
COc1cccc(CN(C)C(=O)c2cc(S(=O)(=O)N3CCCCCC3)ccc2OC)c1		inconclusive: 9.28 µM [inhibitor, partial curve, poor fit]
Cc1ccc(NC(=O)CSc2ccc(-c3ccc(-n4cccn4)cc3)nn2)c(C)c1	inactive: 10.1%	
COc1ccc(/C=N/n2c(C3CCCCC3)n[nH]c2=S)c(OC)c1		inconclusive: 18.5 µM [inhibitor, single point]
CN(C)c1ccc(C(=O)c2ccccc2C(=O)O)cc1[N+](=O)[O-]	inactive: 46.7% [at 5.75 µM]	
CC1CCCCC1NC(=O)/C(C#N)=C/c1ccc(F)c(F)c1 (stereo not given)		inconclusive: 16.5 µM [inhibitor, partial curve, poor fit]
COc1ccccc1NC(=O)C1=C(C)Nc2nnnn2C1c1cc(Br)ccc1OC (stereo not given)		inconclusive: 11.7 µM [inhibitor, single point]
COc1cccc(C2C(C#N)=C(N)N(N(C)C)C3=C2C(=O)CC(C)(C)C3)c1OC (stereo not given)	inactive: -6.67%	
Cc1c(CCC(=O)NC2CC2)c(=O)oc2cc(O)ccc12		inconclusive: 5.86 µM [inhibitor, partial curve, poor fit]
COc1ccc(OCc2cc(C(=O)NC(C)c3csc(C)n3)no2)c(Cl)c1 (stereo not given)	inactive: 22.7%	
CC(C)(C)NC(=O)CN1CCCN(C(=O)c2cccc(S(=O)(=O)N3CCc4ccccc43)c2)CC1		inconclusive: 13.1 µM [inhibitor, single point]
Cc1ccc(OCCOC(=O)c2c(-c3ccccc3)noc2C)cc1		inconclusive: 4.15 µM [inhibitor, partial curve, poor fit]
CC1(C)CC(=O)C(CC(=O)Nc2cc(C(F)(F)F)ccc2Cl)C(=O)C1	inactive: 10.9%	
NS(=O)(=O)c1cccc2cccnc12		inconclusive: 13.1 µM [inhibitor, partial curve]
C/C(=N/NC(=O)c1cc(-c2cccc([N+](=O)[O-])c2)n[nH]1)c1cccc(O)c1		inconclusive: 9.28 µM [inhibitor, partial curve, poor fit]
O=C(OCc1nnc(-c2ccc(Cl)cc2)o1)c1ccc(O)cc1	inactive: 26.8%	
Cc1ccc(NC(=O)COc2coc(CN3c4ccccc4CC3C)cc2=O)c(C)c1 (stereo not given)		inconclusive: 8.28 µM [inhibitor, partial curve]
CC(C)c1onc(C(=O)NC(C)c2ccccc2)c1[N+](=O)[O-] (stereo not given)	inactive: 48.8%	
COc1cc(COc2ccc3c(C)c(Cc4ccccc4)c(=O)oc3c2)cc(OC)c1OC		inconclusive: 10.4 µM [inhibitor, single point]
CCOC(=O)c1csc(-c2ccc([N+](=O)[O-])cc2)n1	inactive: 28.4%	
O=C(Cn1c(=O)oc2ccccc21)Nc1ccccc1Cl		inconclusive: 9.28 µM [inhibitor, single point]
O=C(N/N=C\c1cccc(Cl)c1)c1n[nH]c2c1CCCC2	inactive: 34.8%	
Brc1ccc(-c2nnc3n2-c2ccccc2CC3)cc1	inactive: -12.6%	
COc1ccc2c(c1OC)CN(C)CCc1cc3c(cc1C(O)C2)OCO3 (stereo not given)	inactive: -0.604%	
CCOC(=O)N1CCC(N2CCN(Cc3ccccc3)C(CCO)C2)CC1 (stereo not given)		inconclusive: 18.5 µM [inhibitor, single point]

Arranged by molecular weight (smallest number first): part of the list above.
Structure (SMILES)	activity change, negative = inhibition	Potency
NS(=O)(=O)c1cccc2cccnc12		inconclusive: 13.1 µM [inhibitor, partial curve]
CCOC(=O)c1csc(-c2ccc([N+](=O)[O-])cc2)n1	inactive: 28.4%	
CC(C)c1onc(C(=O)NC(C)c2ccccc2)c1[N+](=O)[O-] (stereo not given)	inactive: 48.8%	
CC1CCCCC1NC(=O)/C(C#N)=C/c1ccc(F)c(F)c1 (stereo not given)		inconclusive: 16.5 µM [inhibitor, partial curve, poor fit]
Brc1ccc(-c2nnc3n2-c2ccccc2CC3)cc1	inactive: -12.6%	
Cc1ccc(OCCOC(=O)c2c(-c3ccccc3)noc2C)cc1		inconclusive: 4.15 µM [inhibitor, partial curve, poor fit]
COc1ccc(/C=N/n2c(C3CCCCC3)n[nH]c2=S)c(OC)c1		inconclusive: 18.5 µM [inhibitor, single point]
C/C(=N/NC(=O)c1cc(-c2cccc([N+](=O)[O-])c2)n[nH]1)c1cccc(O)c1		inconclusive: 9.28 µM [inhibitor, partial curve, poor fit]
COc1ccc2c(c1OC)CN(C)CCc1cc3c(cc1C(O)C2)OCO3 (stereo not given)	inactive: -0.604%	
CC1(C)CC(=O)C(CC(=O)Nc2cc(C(F)(F)F)ccc2Cl)C(=O)C1	inactive: 10.9%	
COc1cccc(C2C(C#N)=C(N)N(N(C)C)C3=C2C(=O)CC(C)(C)C3)c1OC (stereo not given)	inactive: -6.67%	
COc1ccc(OCc2cc(C(=O)NC(C)c3csc(C)n3)no2)c(Cl)c1 (stereo not given)	inactive: 22.7%	
Cc1ccc(NC(=O)CSc2ccc(-c3ccc(-n4cccn4)cc3)nn2)c(C)c1	inactive: 10.1%	
COc1cc(COc2ccc3c(C)c(Cc4ccccc4)c(=O)oc3c2)cc(OC)c1OC		inconclusive: 10.4 µM [inhibitor, single point]
COc1cccc(CN(C)C(=O)c2cc(S(=O)(=O)N3CCCCCC3)ccc2OC)c1		inconclusive: 9.28 µM [inhibitor, partial curve, poor fit]
COc1ccccc1NC(=O)C1=C(C)Nc2nnnn2C1c1cc(Br)ccc1OC (stereo not given)		inconclusive: 11.7 µM [inhibitor, single point]
CC(C)(C)NC(=O)CN1CCCN(C(=O)c2cccc(S(=O)(=O)N3CCc4ccccc43)c2)CC1		inconclusive: 13.1 µM [inhibitor, single point]

Next part

Structure (SMILES)	activity change, negative = inhibition	Potency
COc1ccc(OCCCC(=O)Nc2cc(S(=O)(=O)N3CCCCC3)ccc2OC)cc1		active: 9.28 µM
COc1cccc(C2NC(C)(C(=O)O)C3C(=O)N(C(C)C)C(=O)C23)c1O (stereo not given)	inactive: -32.9%	
Cc1ccc(C(=O)c2coc3ccc(O)c(CN(C)C)c23)cc1		inconclusive: 10.4 µM [inhibitor, partial curve, poor fit]
Cc1cc(/C=C2\SC(=S)N(Cc3ccco3)C2=O)c(C)n1-c1ccccc1		inconclusive: 18.5 µM [inhibitor, single point]
O=C(Nc1cc(-c2nn(CC(=O)N3CCCCC3)c(=O)c3ccccc23)ccc1N1CCOCC1)c1ccc(Cl)cc1		inconclusive: 1.31 µM [inhibitor, partial curve, poor fit]
O=C(Cn1cccc(C(F)(F)F)c1=O)c1ccc(Cl)cc1		inconclusive: 18.5 µM [inhibitor, single point]
S=c1[nH]nc(CN2CCCC2)n1Cc1ccccc1	inactive: 23.6%	
COc1cc(OC)c(NC(=O)CS(=O)(=O)Cc2nc(-c3ccc(C)cc3)oc2C)cc1Cl		active: 8.28 µM
CCCCn1c(SCC(=O)c2ccc(OC)cc2OC)nc2cc(S(N)(=O)=O)ccc21		inconclusive: 0.0738 µM [inhibitor, full curve, poor fit]
CCOC(=O)/C(=N\Nc1ccccc1Cl)N1CCN(c2ccccc2OC)CC1		inconclusive: 18.5 µM [inhibitor, single point]
CCN(Cc1ccccc1)C(=O)c1ccc(N(C)S(=O)(=O)c2ccc(C)cc2)cc1		inconclusive: 7.38 µM [inhibitor, partial curve, poor fit]
COC(=O)C1C(O)=C(C(C)=Nc2cccc3ccccc23)C(=O)CC1(C)C (stereo not given)	inactive: -2.66%	
CCOC(=O)/C=C1\SCC(=O)N1CC(=O)Nc1ccc(C(C)C)cc1		inconclusive: 14.7 µM [inhibitor, single point]
CC(Oc1ccccc1Cl)C(=O)N(Cc1cccs1)C1CCS(=O)(=O)C1 (stereo not given)	inactive: 0.894%	
COc1cccc(CNC(=O)C2Cc3ccccc3CN2C(C)=O)c1 (stereo not given)	inactive: -13.9%	
COc1ccc(CCNS(=O)(=O)c2cc3c4c(c2)CC(=O)N4CCC3)cc1	inactive: -6.35%	
C/C(=N/NC(=O)CNC(=O)c1cccnc1)c1cccc([N+](=O)[O-])c1		inconclusive: 14.7 µM [inhibitor, partial curve, poor fit]
CC(OC(=O)c1ccccc1C(=O)N(C)Cc1ccccc1)C(=O)NC1(C#N)CCCCC1 (stereo not given)		inconclusive: 10.4 µM [inhibitor, partial curve, poor fit]
Cc1cc(C)nc(-n2nc(C)c(C3(O)C(=O)Nc4ccccc43)c2N)n1 (stereo not given)		inconclusive: 13.1 µM [inhibitor, single point]
CCOC(=O)N1CCC(NC(=O)c2ccc(CS(=O)(=O)c3c(Cl)cccc3Cl)o2)CC1		inconclusive: 14.7 µM [inhibitor, partial curve, poor fit]
COc1ccc(-c2nn(-c3ccccc3)cc2/C=C/C(=O)N2CCOCC2)cc1OC		inconclusive: 13.1 µM [inhibitor, single point]
Clc1ccc(COc2ccccc2-c2ccnc3ncnn23)cc1	inactive: 42%	
